Source: the RNAGym collection of RNA variant scans (doi:10.1126/science.aae0568)
Variants at the floor of the assay are shown more often than the library holds them.

B1: tRNA (parent)
chain: GUUCCGUUGGCGUAAUGGUAACGCGUCUCCCUCCUAAGGAGAAGACUGCGGGUUCGAGUCCCGUACGGAACG

Variants of: B1
Assay: yeast fitness relative to wild type (ratio to wild type); higher = fitter; tRNA-Arg(CCU), competitive growth, 37 C, YPD
Summary of the method: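 Changes in genotype frequencies gave Darwinian fitness relative to wild type. Frequencies were read by 100-nucleotide paired-end sequencing of gene amplicons before and after pooled Saccharomyces cerevisiae strains, carrying tRNA-Arg(CCU) gene variants at the native locus, were competed in YPD at 37°C for 24 hours in six replicates. A genotype was kept only with ≥ 100 starting reads, and estimates < 0.5 were set to 0.5.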

Question: Which yeast fitness does the source give for GUUCUGUAGGCGUAAUGAUAACGCGUCUCCCUCCUAAGGAGAAGACUGCGGGUUCGAGUCCCGUAAGGAACG [C5U U8A G18A C66A] here?
Answer: The yeast fitness was ≤ 0.5.

Question: With GUUCUGUAGGCGUAAUGCUAACGCGUCUCCCUCCUAUGGAGAAGACUGCGGGUUCCAGUCUCGUACGGAACG [C5U U8A G18C A37U G56C C61U] as the variant, how does the yeast fitness read?
Answer: Its yeast fitness is ≤ 0.5.

Question: Which yeast fitness does the source give for GUUCUGUCGGCGUAAUGGUAAUGCGUCUCCCUCCUAACGAGAAGACUGCGGGUUCGAGUCCCGUACGGAACG [C5U U8C C22U G38C] here?
Answer: The yeast fitness was ≤ 0.5.

Question: Which yeast fitness does the source give for GUUCUGUUGGCGUAAAGGUAACGCGUCUCCCUCAUAAGGAGAAGACUGCGGAUUCGAGUCCCGUACGGAUCG [C5U U16A C34A G52A A70U] here?
Answer: Its yeast fitness is ≤ 0.5.

Question: With GUUCUGUUGGCGUAAAGGUAACGCGUCUCCCUCAUAAGGAGAAGACUGCGGGCUCGAGUUCCGUACGGAACG [C5U U16A C34A U53C C60U] as the variant, how does the yeast fitness read?
Answer: Its yeast fitness is ≤ 0.5.

Question: Which yeast fitness does the source give for GUUCUGUUGGCGUAACGGCAACGCGACUCCCUCCUAAGGAGAAGACUGCGGGUUUGAGUCCCGUACGGAACG [C5U U16C U19C U26A C55U] here?
Answer: The yeast fitness was ≤ 0.5.

Question: For GUUCUGUUGGCGUAAGGGUAACGCGUCUCCCUCCUAAGGAGAAGACUGCGGGUUCGAGUCCCGUUUGGAACG [C5U U16G A65U C66U], which yeast fitness is on record?
Answer: The yeast fitness was ≤ 0.5.

Question: For GUUCCAUUGGCGUAAUGGUAACGCGUCUCCCUCCUAAGGAGAAGACUGCGGGUUCGAGUCCCGUACGGAACG [G6A], which yeast fitness is on record?
Answer: Its yeast fitness is 0.965.

Question: With GUUCCAUUGGCGUGAUGGUAACGCGUCUCCCUCCUAAGGAGAAGACUGCGGGUUCUAGUCCCGUUCGCAACG [G6A A14G G56U A65U G68C] as the variant, how does the yeast fitness read?
Answer: The yeast fitness was ≤ 0.5.

Question: For GUUCCAUUGGCGUAAUGGUACCGCGUCUCCCUCUUAAGGAGAAGACUGCGGGUUCGAGUCCCGUACGGAACG [G6A A21C C34U], which yeast fitness is on record?
Answer: The yeast fitness was ≤ 0.5.

Question: With GUUCCAUUGGCGUAAUGGUAUCGCGUCUCCCUCCUAAGGAGAAGACUCCGGGUUCGAGUCCCGUACGGAACG [G6A A21U G48C] as the variant, how does the yeast fitness read?
Answer: Its yeast fitness is ≤ 0.5.

Question: With GUUCCAUUGGCGUAAUGGUAACGCGUCUCCCUCCUAUGGAGAAGACUGAGGGUUCGAGUCCUGUACGGAACG [G6A A37U C49A C62U] as the variant, how does the yeast fitness read?
Answer: Its yeast fitness is ≤ 0.5.

Question: For GUUCCAUUGGCGUAAUGGUAACGCGUCUCCCUCCUAAGGAGGAGACUGCGGGUUGGAGUCCCGUACGGAACG [G6A A42G C55G], which yeast fitness is on record?
Answer: The yeast fitness was ≤ 0.5.

Question: With GUUCCAUUGGAGUCAUGGCAACGCGUCUCCCUCCUGAGGAGAAGACUGUGGGUUCGAGUCCCGUACGGAACG [G6A C11A A14C U19C A36G C49U] as the variant, how does the yeast fitness read?
Answer: The yeast fitness was ≤ 0.5.

Question: For GUUCCAUUGGAGUAAUGGUAACGCGUCUCCCUCCUAAGGGGAAGACUGCGGGUUCGAGUCCCGUACGGAACG [G6A C11A A40G], which yeast fitness is on record?
Answer: The yeast fitness was ≤ 0.5.

Question: Which yeast fitness does the source give for GUUCCAUUGGAGUAAUGGUAACGCGUCUCCCUCCUAAGGGGAAGACUGCGGGUUCCAGUCCCGUACGGAGCG [G6A C11A A40G G56C A70G] here?
Answer: Its yeast fitness is ≤ 0.5.

Question: With GUUCCAUUGGUGUAAUGGUAACGCGUCUCCCUCCUAAGGAGAAGACUGCGGGUUCGAGUUACGUACGGAACG [G6A C11U C60U C61A] as the variant, how does the yeast fitness read?
Answer: Its yeast fitness is ≤ 0.5.

Question: Which yeast fitness does the source give for GUUCCAUUGGUGCAAUGGUAACGCGUCUCCCUCCUAAGGAGAAGUUUGCGGGCUCGAGUCCCGUACGGAACG [G6A C11U U13C A45U C46U U53C] here?
Answer: The yeast fitness was ≤ 0.5.

Question: For GUUCCAUUGGCGUAAUGGUAAGGCGUCUCCCUCCUAAGGAGAAGCCUGCGGCUUCGUGUCCCGUACGGCACG [G6A C22G A45C G52C A57U A69C], which yeast fitness is on record?
Answer: The yeast fitness was ≤ 0.5.

Question: With GUUCCAUUGGCGUAAUGGUAAUGCGUCUCCCUCCUAAGGAGAAGACUGCGGGUUGGAGUCCCGUACGGACCG [G6A C22U C55G A70C] as the variant, how does the yeast fitness read?
Answer: Its yeast fitness is ≤ 0.5.

Question: For GUUCCAUUGGCGUAAUGGUAAUGCGUCUCCCUCCUAAGGAGAAAAAUGCGGAUUCGAGUCCCGUAUGGAACG [G6A C22U G44A C46A G52A C66U], which yeast fitness is on record?
Answer: Its yeast fitness is ≤ 0.5.

Question: For GUUCCAUUGGCGUAAUGGUAACGGGUCUCCCUCGUAAGGAGAAGACUCCGGGUUCGAGUCCCGUACGGAACG [G6A C24G C34G G48C], which yeast fitness is on record?
Answer: The yeast fitness was ≤ 0.5.

Question: With GUUCCAUUGGCGUAAUGGUAACGCGUGUCCCUCCUGAGGAGAGGACUGCGGGUUCGAGUCCCGUACGGAACG [G6A C27G A36G A43G] as the variant, how does the yeast fitness read?
Answer: The yeast fitness was ≤ 0.5.

Question: For GUUCCAUUGGCGUAAUGGUAACGCGUUUACCUCCUAAGGAGAAGACUGCGGGUUCGACUCCCGUAUGGAACG [G6A C27U C29A G58C C66U], which yeast fitness is on record?
Answer: The yeast fitness was ≤ 0.5.

Question: For GUUCCAUUGGCGUAAUGGUAACGCGUCUACCUCCUAAGGAGAAGACUGCGGGUUCGAGUCCUGUACGGAACG [G6A C29A C62U], which yeast fitness is on record?
Answer: Its yeast fitness is ≤ 0.5.

Question: Which yeast fitness does the source give for GUUCCAUUGGCGUAAUGGUAACGCGUCUUCCUCCUAAGGAGCAGACUCCGGGUUCGAGUCCCGUACGGAACG [G6A C29U A42C G48C] here?
Answer: The yeast fitness was ≤ 0.5.

Question: For GUUCCAUUGGCGUAAUGGUAACGCGUCUCCCUCUAAAGGAGAAGACUGCGGGUUCGAGUCCCGUAAGGAACG [G6A C34U U35A C66A], which yeast fitness is on record?
Answer: Its yeast fitness is ≤ 0.5.

Question: With GUUCCAUUGGCGUAAUGGUAACGCGUCUCCCUCCUAAGGAGAAGACUGCGGGUUGGAGUCCUGUACGGAACG [G6A C55G C62U] as the variant, how does the yeast fitness read?
Answer: The yeast fitness was ≤ 0.5.

Question: Which yeast fitness does the source give for GUUCCAUUGACGUAAUGGUAACGCGUCUCCCUCCGAAGGAGAGGAUUGCGGGUUCGAGUCCCGUACGGAACG [G6A G10A U35G A43G C46U] here?
Answer: Its yeast fitness is ≤ 0.5.

Question: With GUUCCAUUGCCGUAAUGGUGAUGCGUCUCCCUCCUAAGGAGAAGACUGCAGGUUCGAAUCCCGUACGGAACG [G6A G10C A20G C22U G50A G58A] as the variant, how does the yeast fitness read?
Answer: The yeast fitness was ≤ 0.5.

Question: Which yeast fitness does the source give for GUUCCAUUGGCCUGAUGGUAACGCGUCUCCCUCCUAAGGAGAAGACUGGGGGUUCGAGUCCCGUACGGAACG [G6A G12C A14G C49G] here?
Answer: The yeast fitness was ≤ 0.5.

Question: For GUUCCAUUGGCGUAAUCGUAACGCGUCUCCCUCCUAAGGAGAAGACUGCGGGUUCGAGUCUUGUAAGGAACG [G6A G17C C61U C62U C66A], which yeast fitness is on record?
Answer: The yeast fitness was ≤ 0.5.

Question: For GUUCCAUUGGCGUAAUGAUAACGCGUCUUCAUCCUAAGGAGAAGACUGCGGGUUCGAGUCCCGUACGGAACG [G6A G18A C29U C31A], which yeast fitness is on record?
Answer: The yeast fitness was ≤ 0.5.

Question: With GUUCCAUUGGCGUAAUGCUAGCGCGUCUCCCUCCUAAGGAGAAGACUGCGGGUUCGAGUCCCGUACGGAACG [G6A G18C A21G] as the variant, how does the yeast fitness read?
Answer: The yeast fitness was ≤ 0.5.

Question: For GUUCCAUUGGCGUAAUGCUAACGCGUCUCCCUCCUAAGGAGAAGACUGUGGGUUCGAGUCGCGUACGGAACG [G6A G18C C49U C61G], which yeast fitness is on record?
Answer: Its yeast fitness is ≤ 0.5.

Question: Which yeast fitness does the source give for GUUCCAUUGGCGUAAUGGUAACACGUCGCCCUCCUAAGGAGAAGACUGCGGGUUCGAGUCACGUACGGUACG [G6A G23A U28G C61A A69U] here?
Answer: The yeast fitness was ≤ 0.5.

Question: With GUUCCAUUGGCGUAAUGGUAACCGGUCUCCCUCGUAAGGAGAAGACUGCGGGUUCGAGUCCCGAACGGAACG [G6A G23C C24G C34G U64A] as the variant, how does the yeast fitness read?
Answer: Its yeast fitness is ≤ 0.5.

Question: Which yeast fitness does the source give for GUUCCAUUGGCGUAAUGGUAACGCGUCUCCCUCCUAAGCAGAAGACUGCGGGUUCGAGUGCCGUACGGAUCG [G6A G39C C60G A70U] here?
Answer: The yeast fitness was ≤ 0.5.
